In the assay the target is HECTD1 (endogenous) (human (endogenous in HEK293T)) (UniProt Q9ULT8). In words: affinity purification with mass spectrometry; anti-HECTD1 antibody (Ab101992) or IgG on Dynabeads, incubated 1 h at RT with lysates of HEK293T cells synchronised in late G2 (RO3306) or released into M-phase; LC-MS/MS of gel slices.

Chains of the proteins cited; added tags and fusions are not shown.
UniProt Q9ULT8: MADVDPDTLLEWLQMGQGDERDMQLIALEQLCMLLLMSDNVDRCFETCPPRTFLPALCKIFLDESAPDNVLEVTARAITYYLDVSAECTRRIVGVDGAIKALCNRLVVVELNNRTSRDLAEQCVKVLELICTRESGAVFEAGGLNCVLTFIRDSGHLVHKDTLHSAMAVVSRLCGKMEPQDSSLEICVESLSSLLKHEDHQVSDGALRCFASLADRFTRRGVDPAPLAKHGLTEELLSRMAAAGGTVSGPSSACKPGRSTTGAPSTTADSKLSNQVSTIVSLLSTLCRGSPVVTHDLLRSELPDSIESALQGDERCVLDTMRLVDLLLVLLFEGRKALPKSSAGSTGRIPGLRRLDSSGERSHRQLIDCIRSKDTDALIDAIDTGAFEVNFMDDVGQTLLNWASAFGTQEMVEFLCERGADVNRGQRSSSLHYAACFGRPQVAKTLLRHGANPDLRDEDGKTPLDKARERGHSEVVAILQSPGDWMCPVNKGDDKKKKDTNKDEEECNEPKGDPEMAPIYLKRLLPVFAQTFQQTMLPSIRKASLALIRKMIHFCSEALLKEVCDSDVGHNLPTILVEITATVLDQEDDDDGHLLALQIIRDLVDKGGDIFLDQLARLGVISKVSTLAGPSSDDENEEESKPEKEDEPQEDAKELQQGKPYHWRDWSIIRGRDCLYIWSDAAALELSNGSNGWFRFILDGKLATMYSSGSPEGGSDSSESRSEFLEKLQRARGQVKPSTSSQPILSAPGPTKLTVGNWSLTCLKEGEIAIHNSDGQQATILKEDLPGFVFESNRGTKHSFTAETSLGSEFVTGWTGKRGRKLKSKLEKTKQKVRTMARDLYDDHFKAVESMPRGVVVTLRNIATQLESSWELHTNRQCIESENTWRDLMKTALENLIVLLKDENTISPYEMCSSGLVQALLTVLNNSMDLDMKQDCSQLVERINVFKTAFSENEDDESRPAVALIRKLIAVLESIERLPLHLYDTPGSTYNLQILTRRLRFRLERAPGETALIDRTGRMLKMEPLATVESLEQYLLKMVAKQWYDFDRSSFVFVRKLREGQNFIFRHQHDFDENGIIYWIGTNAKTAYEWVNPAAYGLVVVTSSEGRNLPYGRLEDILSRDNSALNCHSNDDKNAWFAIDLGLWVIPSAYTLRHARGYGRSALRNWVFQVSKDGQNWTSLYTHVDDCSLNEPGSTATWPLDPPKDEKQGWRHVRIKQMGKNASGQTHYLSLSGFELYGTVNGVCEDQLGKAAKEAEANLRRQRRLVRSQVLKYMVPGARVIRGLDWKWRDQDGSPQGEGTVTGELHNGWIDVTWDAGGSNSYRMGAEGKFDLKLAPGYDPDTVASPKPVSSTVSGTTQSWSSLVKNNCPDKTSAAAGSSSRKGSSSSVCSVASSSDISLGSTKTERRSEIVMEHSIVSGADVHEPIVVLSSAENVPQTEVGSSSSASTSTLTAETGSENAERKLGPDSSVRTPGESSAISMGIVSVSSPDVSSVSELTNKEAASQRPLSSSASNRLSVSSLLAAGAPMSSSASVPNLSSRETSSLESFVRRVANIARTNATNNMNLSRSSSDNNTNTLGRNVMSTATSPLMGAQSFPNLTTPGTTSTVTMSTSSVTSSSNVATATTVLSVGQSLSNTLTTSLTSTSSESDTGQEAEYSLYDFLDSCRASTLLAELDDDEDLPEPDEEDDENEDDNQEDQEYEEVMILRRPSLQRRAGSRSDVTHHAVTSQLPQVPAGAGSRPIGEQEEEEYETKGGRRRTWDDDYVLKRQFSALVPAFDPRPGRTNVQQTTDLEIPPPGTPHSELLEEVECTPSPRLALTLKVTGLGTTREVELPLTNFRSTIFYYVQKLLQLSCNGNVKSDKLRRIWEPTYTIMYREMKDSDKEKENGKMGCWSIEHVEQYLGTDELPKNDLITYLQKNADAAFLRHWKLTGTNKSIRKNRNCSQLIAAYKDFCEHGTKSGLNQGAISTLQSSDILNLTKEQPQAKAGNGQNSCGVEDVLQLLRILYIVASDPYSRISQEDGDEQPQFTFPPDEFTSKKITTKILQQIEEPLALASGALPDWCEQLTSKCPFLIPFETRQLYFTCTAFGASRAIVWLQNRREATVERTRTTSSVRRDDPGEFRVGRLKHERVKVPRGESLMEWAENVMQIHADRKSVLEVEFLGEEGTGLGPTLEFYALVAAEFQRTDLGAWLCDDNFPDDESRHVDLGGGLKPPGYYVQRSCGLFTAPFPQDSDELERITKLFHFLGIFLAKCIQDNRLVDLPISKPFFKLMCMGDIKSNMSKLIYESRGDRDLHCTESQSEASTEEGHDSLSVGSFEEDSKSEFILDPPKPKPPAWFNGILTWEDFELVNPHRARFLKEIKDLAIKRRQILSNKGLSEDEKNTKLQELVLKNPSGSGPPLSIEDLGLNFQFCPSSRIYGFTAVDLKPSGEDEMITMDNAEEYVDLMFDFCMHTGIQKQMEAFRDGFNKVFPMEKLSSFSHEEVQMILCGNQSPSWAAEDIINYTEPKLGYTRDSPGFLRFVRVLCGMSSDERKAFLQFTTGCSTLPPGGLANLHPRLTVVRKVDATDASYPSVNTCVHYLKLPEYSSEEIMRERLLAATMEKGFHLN
UniProt O43684: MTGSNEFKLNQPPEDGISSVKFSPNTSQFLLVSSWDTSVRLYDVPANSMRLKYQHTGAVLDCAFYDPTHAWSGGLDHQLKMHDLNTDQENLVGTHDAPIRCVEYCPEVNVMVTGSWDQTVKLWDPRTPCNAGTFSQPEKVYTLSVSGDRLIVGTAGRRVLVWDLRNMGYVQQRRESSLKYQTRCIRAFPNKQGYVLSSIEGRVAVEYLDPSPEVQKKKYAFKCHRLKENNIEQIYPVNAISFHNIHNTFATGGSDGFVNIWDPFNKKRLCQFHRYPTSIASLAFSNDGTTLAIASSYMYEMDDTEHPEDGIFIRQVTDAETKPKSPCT

One substance from paper PMC9343455 can be followed below.

No constants are given. Whether binding was seen depends on the method and setting. In cells and extracts the contact can be indirect. These calls come from enrichment with a bait or labelling near it, and not all partners need be listed.

In the case of “BUB3 (endogenous) (from UniProt O43684 1-328)”, the binding result is on record as “binds”.
